Results from paper PMC8357632.
No constants are given. Whether binding was seen depends on the method and setting. For some of these results: Binding seen in cells or lysates may run through a third protein. Some entries that bind do so weakly or less than the wild type. For some of these results: Sequences can lack the tags named with a protein.

Assays:
[1] = target: T1, Luc7 (S. cerevisiae (endogenous in yeast whole-cell extract)) (UniProt Q07508); assay: cryo-EM structure + cross-linking; ΔBS-A pre-A complex: Prp40 FF domains placed in the EM density as rigid bodies with the help of CXMS (BS3) cross-links
T1 sequence: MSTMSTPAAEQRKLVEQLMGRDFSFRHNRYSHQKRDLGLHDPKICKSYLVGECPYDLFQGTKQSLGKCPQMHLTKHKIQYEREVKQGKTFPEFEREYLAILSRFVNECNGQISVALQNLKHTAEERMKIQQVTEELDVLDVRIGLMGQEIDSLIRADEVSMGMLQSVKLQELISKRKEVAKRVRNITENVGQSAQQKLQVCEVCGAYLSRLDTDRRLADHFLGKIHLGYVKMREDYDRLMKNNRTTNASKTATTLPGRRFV

[2] = target: T2, Snp1 (S. cerevisiae (endogenous in yeast whole-cell extract)) (UniProt Q00916); assay: as above
T2 sequence: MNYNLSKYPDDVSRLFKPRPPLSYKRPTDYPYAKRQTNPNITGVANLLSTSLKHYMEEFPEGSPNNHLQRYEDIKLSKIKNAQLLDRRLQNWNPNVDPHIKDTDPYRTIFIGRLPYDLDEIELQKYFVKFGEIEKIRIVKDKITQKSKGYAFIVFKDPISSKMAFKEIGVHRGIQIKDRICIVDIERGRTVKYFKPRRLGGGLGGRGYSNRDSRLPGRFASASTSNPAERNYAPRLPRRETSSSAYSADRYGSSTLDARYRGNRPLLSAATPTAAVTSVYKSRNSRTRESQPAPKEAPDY

[3] = target: T3, Rse1 (S. cerevisiae (endogenous in yeast whole-cell extract)) (UniProt Q04693); assay: as above
T3 sequence: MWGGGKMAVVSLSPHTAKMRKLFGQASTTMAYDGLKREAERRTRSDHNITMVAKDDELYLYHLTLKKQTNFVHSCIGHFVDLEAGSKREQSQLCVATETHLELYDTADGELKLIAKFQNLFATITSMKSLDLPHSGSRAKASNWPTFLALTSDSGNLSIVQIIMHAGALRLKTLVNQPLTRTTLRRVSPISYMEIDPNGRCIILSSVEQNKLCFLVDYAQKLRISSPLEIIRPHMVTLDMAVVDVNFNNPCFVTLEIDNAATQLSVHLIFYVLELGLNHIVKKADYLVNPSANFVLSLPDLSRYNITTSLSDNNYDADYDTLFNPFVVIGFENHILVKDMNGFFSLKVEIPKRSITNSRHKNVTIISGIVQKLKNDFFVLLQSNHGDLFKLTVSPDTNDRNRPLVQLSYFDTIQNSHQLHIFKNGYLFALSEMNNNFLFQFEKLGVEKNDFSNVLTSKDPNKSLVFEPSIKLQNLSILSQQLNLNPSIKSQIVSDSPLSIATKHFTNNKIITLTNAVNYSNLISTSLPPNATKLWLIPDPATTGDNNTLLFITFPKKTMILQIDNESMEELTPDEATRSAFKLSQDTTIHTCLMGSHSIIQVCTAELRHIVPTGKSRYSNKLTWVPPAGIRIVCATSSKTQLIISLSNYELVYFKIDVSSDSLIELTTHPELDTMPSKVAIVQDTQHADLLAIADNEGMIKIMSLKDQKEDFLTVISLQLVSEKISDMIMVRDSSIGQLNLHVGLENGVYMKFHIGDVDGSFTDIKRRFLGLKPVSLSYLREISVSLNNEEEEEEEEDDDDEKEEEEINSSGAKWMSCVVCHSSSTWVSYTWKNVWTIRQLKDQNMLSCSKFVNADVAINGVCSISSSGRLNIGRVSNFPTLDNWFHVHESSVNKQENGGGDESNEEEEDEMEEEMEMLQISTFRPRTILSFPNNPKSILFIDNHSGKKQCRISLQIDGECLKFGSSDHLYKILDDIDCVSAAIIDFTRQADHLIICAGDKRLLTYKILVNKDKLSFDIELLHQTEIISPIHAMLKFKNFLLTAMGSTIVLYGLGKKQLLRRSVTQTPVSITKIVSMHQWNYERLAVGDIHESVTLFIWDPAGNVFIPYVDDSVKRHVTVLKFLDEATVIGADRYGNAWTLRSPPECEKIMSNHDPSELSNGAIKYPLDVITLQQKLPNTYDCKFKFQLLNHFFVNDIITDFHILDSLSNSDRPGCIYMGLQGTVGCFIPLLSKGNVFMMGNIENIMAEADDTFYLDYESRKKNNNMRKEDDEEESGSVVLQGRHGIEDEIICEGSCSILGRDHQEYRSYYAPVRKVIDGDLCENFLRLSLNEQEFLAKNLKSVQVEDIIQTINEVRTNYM

[4] = target: T3, Rse1 (S. cerevisiae (endogenous in yeast whole-cell extract)); assay: cryo-EM structure; U257A pre-A complex assembled in yeast extract on U257A Act pre-mRNA; 10.4 Å overall, U1 7.5 Å, U2 13 Å; the ΔBS-A pre-A model fitted into the density

- binding [1]: binds
- binding [2]: binds
- binding [3]: binds
- binding [4]: binds
B1: Prp40 (protein, UniProt P33203 1-583)
chain: MSIWKEAKDASGRIYYYNTLTKKSTWEKPKELISQEELLLRENGWKAAKTADGKVYYYNPTTRETSWTIPAFEKKVEPIAEQKHDTVSHAQVNGNRIALTAGEKQEPGRTINEEESQYANNSKLLNVRRRTKEEAEKEFITMLKENQVDSTWSFSRIISELGTRDPRYWMVDDDPLWKKEMFEKYLSNRSADQLLKEHNETSKFKEAFQKMLQNNSHIKYYTRWPTAKRLIADEPIYKHSVVNEKTKRQTFQDYIDTLIDTQKESKKKLKTQALKELREYLNGIITTSSSETFITWQQLLNHYVFDKSKRYMANRHFKVLTHEDVLNEYLKIVNTIENDLQNKLNELRLRNYTRDRIARDNFKSLLREVPIKIKANTRWSDIYPHIKSDPRFLHMLGRNGSSCLDLFLDFVDEQRMYIFAQRSIAQQTLIDQNFEWNDADSDEITKQNIEKVLENDRKFDKVDKEDISLIVDGLIKQRNEKIQQKLQNERRILEQKKHYFWLLLQRTYTKTGKPKPSTWDLASKELGESLEYKALGDEDNIRRQIFEDFKPESSAPTAESATANLTLTASKKRHLTPAVELDY
